Four sequences from PMC5298339 can be followed below.

Chains of the proteins cited; added tags and fusions are not shown.
UniProt Q04206, whole entry: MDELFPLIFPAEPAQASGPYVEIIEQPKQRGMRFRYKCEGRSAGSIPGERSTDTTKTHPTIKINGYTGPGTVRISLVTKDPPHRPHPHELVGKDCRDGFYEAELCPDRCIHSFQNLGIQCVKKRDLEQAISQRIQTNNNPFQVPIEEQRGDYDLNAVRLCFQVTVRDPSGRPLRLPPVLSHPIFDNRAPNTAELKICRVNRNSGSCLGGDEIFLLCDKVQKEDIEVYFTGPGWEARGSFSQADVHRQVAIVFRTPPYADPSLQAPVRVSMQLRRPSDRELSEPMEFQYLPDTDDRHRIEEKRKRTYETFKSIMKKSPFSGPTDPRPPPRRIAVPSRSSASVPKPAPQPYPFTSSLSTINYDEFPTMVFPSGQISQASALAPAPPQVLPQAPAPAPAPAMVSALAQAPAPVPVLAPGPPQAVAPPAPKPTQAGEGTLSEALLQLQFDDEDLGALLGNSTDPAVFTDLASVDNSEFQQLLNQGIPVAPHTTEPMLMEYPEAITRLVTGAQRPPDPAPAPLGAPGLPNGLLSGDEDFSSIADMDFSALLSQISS

The exact form of at least one protein or probe is not confirmed. At least one result comes from cells or an extract, where the contact may be indirect. For some of these results: No signal at the amounts used counts as a negative.

For data set [1], the target named is p65-NF-kB (nuclear extract of LPS-stimulated hPVECs) (Homo sapiens) (UniProt Q04206). The data set can be described thus: EMSA. The following applies: 1 ug LPS-stimulated hPVEC nuclear extract, EMSA: 0.08 pmol DIG-labelled probe, 1 ug nuclear protein (up to 5 ug), pH and temperature not stated, protein in an extract, label: DIG-11-ddUTP 3' (TdT). A general note: In EMSA bound probe runs differently from free probe, usually more slowly.

Data set [2] shares this target. The data set can be described thus: EMSA supershift. The following applies: anti-p65 antibody, LPS-stimulated hPVEC nuclear extract; EMSA: 0.08 pmol DIG-labelled probe, 1 ug nuclear protein (up to 5 ug); pH and temperature not stated; protein in an extract; label: DIG-11-ddUTP 3' (TdT).
Data set [3] shares this target. The data set can be described thus: competition with a labelled probe. The following applies: unlabelled self-competitor against N1, excess 1x/2x/4x in legend, 50X/100X/200X in Methods; EMSA: 0.08 pmol DIG-labelled probe, 1 ug nuclear protein (up to 5 ug); pH and temperature not stated; protein in an extract.

Regarding “AGTTGAGGGGACTTTCCCAGGC (double strand) [NF-kB standard probe]”, in data set [1] (no supershift with this probe), the binding result is “binds”.

Take “CCGCCCGGGACTCCCCTGCG (double strand) [Hb-alpha promoter NF-kB wild-type probe]”: the binding result in data set [2] was “binds”.

Turning to “CCGCCCGGGACTCCCCTGCG (double strand) [unlabelled Hb-alpha promoter NF-kB wild-type competitor]”, the binding result in data set [3] was “binds”.

In the case of “CCGCCCGGGCCTGACCTGCG (double strand) [Hb-alpha promoter NF-kB mutant probe]”, the binding result in data set [1] is reported as “no binding”.
